Key:
[1] = peptide synthesis
[2] = tested on: ROS/singlet oxygen; test: Flow cytometry of ROS/singlet oxygen production with APF sensor; assay type: cell-based; settings: from flow cytometry data of the PNA conjugates, corrected for extinction coefficients at irradiation wavelength (155000 AF555, 92000 TMR cm^−1 M^−1)

Compound	final purity (method not given) ([1]; conjugation step) [%]	further results
H-(D-Arg)8-Cys(AF555)-CCT CTT ACC TCA GTT ACA-NH2	98	–
H-(D-Arg)8-Cys(TMR)-CCT CTT ACC TCA GTT ACA-NH2	97	–
H-(D-Arg)8-Cys(AF488)-CCT CTT ACC TCA GTT ACA-NH2	98	–
TAT-Lys(Deca)-Gly- CCT CTT ACC TCA GTT ACA-NH2	–	final purity (method not given) ([1]; whole synthesis): 98%
H-(D-Arg)8-Cys(Flm)-CCT CTT ACC TCA GTT ACA-NH2	98	–
CN(C)c1ccc2c(-c3ccccc3C(=O)[O-])c3ccc(N(C)C)cc3[o+]c2c1 [TMR fluorophore, Tetramethylrhodamine]	–	quantum yield for singlet oxygen formation, TMR compared to AF555 [2]: 1.6 fold
H- (D-Arg)8-Gly- CCT CTT ACC TCA GTT ACA-NH2	–	final purity (method not given) ([1]; whole synthesis): 96%

Source: article PMC5766568 (Scientific Reports, 2018)
